Source: PMC7883444
Numbering of substitutions follows the chain as printed. In names and notes the source's numbering stands. These are yes or no findings as the source states them, for the method shown. In cells and extracts the contact can be indirect. Some results given as binding are weak or reduced against the parent protein; the word gives no strength. For some assays here: Sequences can lack the tags named with a protein. One block for each binder: values may come before it.

Protein sequences, listed by entry. Tags and fused reporters are not part of them.
UniProt Q86TM6: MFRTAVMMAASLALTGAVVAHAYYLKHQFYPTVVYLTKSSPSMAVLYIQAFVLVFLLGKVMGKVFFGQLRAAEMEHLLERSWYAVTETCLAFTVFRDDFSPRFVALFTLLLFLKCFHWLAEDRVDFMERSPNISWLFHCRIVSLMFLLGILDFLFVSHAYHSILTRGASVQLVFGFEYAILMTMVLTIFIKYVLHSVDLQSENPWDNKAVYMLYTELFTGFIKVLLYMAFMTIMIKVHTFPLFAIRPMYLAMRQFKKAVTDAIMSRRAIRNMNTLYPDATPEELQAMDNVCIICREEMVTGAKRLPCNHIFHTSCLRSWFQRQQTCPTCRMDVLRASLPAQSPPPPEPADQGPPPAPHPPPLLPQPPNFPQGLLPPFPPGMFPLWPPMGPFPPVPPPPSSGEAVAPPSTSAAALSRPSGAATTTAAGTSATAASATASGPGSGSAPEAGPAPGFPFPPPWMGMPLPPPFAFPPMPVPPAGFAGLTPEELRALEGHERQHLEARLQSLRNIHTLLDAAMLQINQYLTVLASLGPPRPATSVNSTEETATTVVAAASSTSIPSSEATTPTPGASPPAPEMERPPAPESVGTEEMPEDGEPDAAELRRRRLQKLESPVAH

Experiments:
[1] = target: HMG-CoA reductase degradation protein 1 (HRD1) (human (endogenous in MDA-MB-231)) (UniProt Q86TM6); test: co-IP; MDA-MB-231 cells infected with Ad-GFP or Ad-HRD1 for 48 h; lysate immunoprecipitated with antibody for target proteins and protein A/G agarose beads at 4 °C overnight, IgG as negative control; western blotting
[2] = target: HRD1 overexpressed from Ad-HRD1 (UniProt Q86TM6); test: as above
Myc-tagged HRD1 = Myc-tagged HRD1 (UniProt Q86TM6); test: co-IP; PFKP-depleted MDA-MB-231 cells co-transfected with Myc-tagged HRD1 and Flag-PFKP (WT or mutant); lysates IP with anti-Myc antibody, western blotting with anti-Flag

- binding [1]: binds
- binding [2]: binds
B1: platelet isoform of phosphofructokinase (PFKP) (enzyme, UniProt Q01813 1-784)
chain: MDADDSRAPKGSLRKFLEHLSGAGKAIGVLTSGGDAQGMNAAVRAVVRMGIYVGAKVYFIYEGYQGMVDGGSNIAEADWESVSSILQVGGTIIGSARCQAFRTREGRLKAACNLLQRGITNLCVIGGDGSLTGANLFRKEWSGLLEELARNGQIDKEAVQKYAYLNVVGMVGSIDNDFCGTDMTIGTDSALHRIIEVVDAIMTTAQSHQRTFVLEVMGRHCGYLALVSALACGADWVFLPESPPEEGWEEQMCVKLSENRARKKRLNIIIVAEGAIDTQNKPITSEKIKELVVTQLGYDTRVTILGHVQRGGTPSAFDRILASRMGVEAVIALLEATPDTPACVVSLNGNHAVRLPLMECVQMTQDVQKAMDERRFQDAVRLRGRSFAGNLNTYKRLAIKLPDDQIPKTNCNVAVINVGAPAAGMNAAVRSAVRVGIADGHRMLAIYDGFDGFAKGQIKEIGWTDVGGWTGQGGSILGTKRVLPGKYLEEIATQMRTHSINALLIIGGFEAYLGLLELSAAREKHEEFCVPMVMVPATVSNNVPGSDFSIGADTALNTITDTCDRIKQSASGTKRRVFIIETMGGYCGYLANMGGLAAGADAAYIFEEPFDIRDLQSNVEHLTEKMKTTIQRGLVLRNESCSENYTTDFIYQLYSEEGKGVFDCRKNVLGHMQQGGAPSPFDRNFGTKISARAMEWITAKLKEARGRGKKFTTDDSICVLGISKRNVIFQPVAELKKQTDFEHRIPKEQWWLKLRPLMKILAKYKASYDVSDSGQLEHVQPWSV

- binding (Myc-tagged HRD1): binds
B2: WT Flag-PFKP (enzyme, UniProt Q01813 1-784)
chain: B1 chain

- binding (Myc-tagged HRD1): binds
B3: Flag-PFKP K10R mutant (enzyme, UniProt Q01813 1-784)
chain: B1 chain with K10R

- binding (Myc-tagged HRD1): binds
B4: Flag-PFKP S386A (enzyme, UniProt Q01813 1-784)
chain: B1 chain with S386A
